Test results: PMC5218472 (PLoS Biology, 2017)

assay: general procedure: Fmoc solid-phase peptide synthesis; Trt-ChemMatrix resin (PCAS Biomatrix), loading 0.42 mmol/g; HCTU/DIPEA; DIC/HOOBt for Fmoc-Thr(Ac3GalNAc)-OH; details: whole synthesis, scale of the general procedure 500 mg resin

Row | Substance | isolated yield [%]
1 | PEPTIDE1{N.I.L.F.R.D.S.A.N.A.T.S.L.P.V.Q.D.S.S.S.V.P.L.P}$$$$V2.0 | 15
2 | PEPTIDE1{N.I.L.F.R.D.S.A.[AsnGlcNAc].A.T.S.L.P.V.Q.A.S.S.S.V.P.L.P}$$$$V2.0 | 17
3 | PEPTIDE1{N.I.L.F.R.D.S.A.N.A.[ThrGalNAc].S.L.P.V.Q.A.S.S.S.V.P.L.P}$$$$V2.0 | 22
4 | PEPTIDE1{N.I.L.F.R.D.S.A.[AsnGlcNAc].A.T.S.L.P.V.Q.D.S.S.S.V.P.L.P}$$$$V2.0 | 16
5 | PEPTIDE1{N.I.L.F.R.D.S.A.N.A.[ThrGalNAc].S.L.P.V.Q.D.S.S.S.V.P.L.P}$$$$V2.0 | 25
6 | PEPTIDE1{N.I.L.F.R.D.S.A.N.A.T.S.L.P.V.Q.A.S.S.S.V.P.L.P}$$$$V2.0 | 15

Some peptides are written in HELM: one residue between dots, names in brackets for other building blocks, links after the first $.
